Results on one molecule are retold here after article PMC9122892.

No constants are given. Whether binding was seen depends on the method and setting. Binding seen in cells or lysates may run through a third protein. Some entries that bind do so weakly or less than the wild type.

This assay has as its target T1, Ifi204 (mouse (endogenous in mouse tissue)) (UniProt P0DOV2).
T1 sequence: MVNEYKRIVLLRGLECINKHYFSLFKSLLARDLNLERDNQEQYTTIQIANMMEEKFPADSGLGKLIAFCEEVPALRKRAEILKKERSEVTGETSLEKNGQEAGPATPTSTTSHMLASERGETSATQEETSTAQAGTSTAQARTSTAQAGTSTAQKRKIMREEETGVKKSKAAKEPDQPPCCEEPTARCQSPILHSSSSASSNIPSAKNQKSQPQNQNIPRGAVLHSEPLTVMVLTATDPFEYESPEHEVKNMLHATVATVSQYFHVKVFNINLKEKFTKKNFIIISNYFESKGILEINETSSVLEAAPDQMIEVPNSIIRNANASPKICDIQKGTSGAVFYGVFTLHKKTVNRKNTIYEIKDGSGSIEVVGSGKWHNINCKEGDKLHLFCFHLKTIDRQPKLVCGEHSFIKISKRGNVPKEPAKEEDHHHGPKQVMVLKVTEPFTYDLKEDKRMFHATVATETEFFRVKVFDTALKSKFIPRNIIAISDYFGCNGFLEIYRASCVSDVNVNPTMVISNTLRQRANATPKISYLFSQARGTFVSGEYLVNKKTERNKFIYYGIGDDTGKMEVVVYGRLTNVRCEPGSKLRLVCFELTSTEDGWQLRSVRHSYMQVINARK
The experiment in a line: proximity ligation; PLA (Duolink) on deparaffinized allograft tumor tissue sections from HFD-fed mice; anti-Ifi204 with anti-HIF1α or anti-PRMT2.

B1: PRMT2 (mouse) (protein, UniProt Q9R144 1-448)
chain: MEAPGEGPCSESQVIPVLEEDPVDYGCEMQLLQDGAQLQLQLQPEEFVAIADYTATDETQLSFLRGEKILILRQTTADWWWGERAGCCGYIPANHLGKQLEEYDPEDTWQDEEYFDSYGTLKLHLEMLADQPRTTKYHSVILQNKESLKDKVILDVGCGTGIISLFCAHHARPKAVYAVEASDMAQHTSQLVLQNGFADTITVFQQKVEDVVLPEKVDVLVSEWMGTCLLFEFMIESILYARDTWLKGDGIIWPTTAALHLVPCSAEKDYHSKVLFWDNAYEFNLSALKSLAIKEFFSRPKSNHILKPEDCLSEPCTILQLDMRTVQVPDLETMRGELRFDIQKAGTLHGFTAWFSVYFQSLEEGQPQQVVSTGPLHPTTHWKQTLFMMDDPVPVHTGDVVHGFCCVTKKSGMEKAHVCLSELGCHVRTRSHVSTELETGSFRSGGDS
In the case of B1, the binding entry is given as “binds”.
